{
  "source": "paper PMC10498670",
  "about": "(2023)",
  "experiment": "general procedure: Fmoc solid-phase peptide synthesis; 2'-Cl-TrtCl polystyrene resin (1.1 mmol/g); HCTU/DIPEA",
  "settings": "whole synthesis, scale of the general procedure 0.2 mmol",
  "note": "HELM strings list residues between dots; [ac] is acetyl, [am] amide, other brackets name non-standard units.",
  "data": [
    {"substance": "PEPTIDE1{P.G.L.D.T.[3AbOdzEt]}$PEPTIDE1,PEPTIDE1,1:R1-6:R2$$$V2.0", "values": [
      {"measurement": "isolated yield", "value": 27, "unit": "%"}
    ]},
    {"substance": "PEPTIDE1{P.G.L.D.T.[3AbOxzEt]}$PEPTIDE1,PEPTIDE1,1:R1-6:R2$$$V2.0", "values": [
      {"measurement": "isolated yield", "value": 21, "unit": "%"}
    ]}
  ]
}
